{
  "sequences": {"note": "Protein sequences, listed by entry. Tags and fused reporters are not part of them.", "UniProt P17879": "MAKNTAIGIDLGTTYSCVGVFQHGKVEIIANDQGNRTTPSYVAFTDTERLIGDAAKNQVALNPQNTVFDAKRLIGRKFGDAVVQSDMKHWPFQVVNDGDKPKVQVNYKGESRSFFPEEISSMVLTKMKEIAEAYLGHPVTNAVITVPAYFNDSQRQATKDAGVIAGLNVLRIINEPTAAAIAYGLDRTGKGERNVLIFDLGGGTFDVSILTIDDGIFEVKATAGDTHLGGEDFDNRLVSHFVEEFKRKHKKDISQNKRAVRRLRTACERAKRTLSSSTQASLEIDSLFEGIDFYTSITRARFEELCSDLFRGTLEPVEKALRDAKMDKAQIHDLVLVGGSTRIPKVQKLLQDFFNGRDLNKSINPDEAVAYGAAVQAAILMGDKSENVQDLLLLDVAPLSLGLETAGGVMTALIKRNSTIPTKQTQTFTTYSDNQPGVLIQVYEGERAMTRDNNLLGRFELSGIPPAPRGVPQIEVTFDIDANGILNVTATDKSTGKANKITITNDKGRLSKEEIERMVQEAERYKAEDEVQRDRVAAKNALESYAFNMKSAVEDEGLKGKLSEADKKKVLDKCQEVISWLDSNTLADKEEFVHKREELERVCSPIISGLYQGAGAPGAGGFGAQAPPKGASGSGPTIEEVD"},
  "source": "patent US20230128075A1",
  "biological_target": "murine HSP70 (murine) (UniProt P17879)",
  "assay": "Octet bio-layer interferometry, association to 300 s then dissociation; concentrations not given",
  "note": "No constants are given. Whether binding was seen depends on the method and setting. Some results given as binding are weak or reduced against the parent protein; the word gives no strength.",
  "data": [
    {"binder": "77A antibody (clone 77A, murine anti-HSP70 mAb) (antibody, V domains shown) VH: QIQLVQSGPELKKPGETVKISCKASGYTFTNYGMNWVKQAPGKGLKWMGWINTYTGEPTYADDFKGRFAFSLETSATTAYLQINNLKNEDTATYFCARYDHAMDYWGQGTSVTVSS VL: DIVMSQSPSSLAVSAGEKVTMSCKSSQSLLNSGTRKNYLAWYQQKPGQSPKLLIYWTSTRESGVPDRFTGSGSGTDFTLTINSVQAEDLAVYYCKQSYTLYTFGGGTKLEIK", "values": [
      {"measurement": "binding", "value": "binds"}
    ]}
  ]
}
